For assay [1], the target named is Huntingtin (Homo sapiens) (UniProt P42858). Put plainly: inhibitors of mutant Htt aggregation in vitro, dose response, QA1 (AID 1584). Particulars: in vitro mutant huntingtin aggregation assay; confirmation test; at 10 µM; stronger effect = lower value.
Assay [2] can be described thus: PubChem AID 1586. Particulars: yeast two-hybrid polyglutamine protein interaction, reporter readout; measured here: averaged growth delta OD.
A short description of assay [3]: enhancers of SMN2 over SMN1 splicing, cell-based, SMN2/SMN1 luciferase reporters (AID 1598). Particulars: SMN2 vs SMN1 luciferase splicing reporter cells, at 10 µM; SMN1 luciferase ratio: measured here: SMN1 luciferase reporter average; SMN2 luciferase ratio: measured here: SMN2 luciferase reporter average, stronger effect = higher value. In general terms: Reporter assays use an easily measured gene product as a stand-in for the process of interest.

Amino acid sequences for entries named in this document (tags omitted).
UniProt P42858, whole entry, looked up: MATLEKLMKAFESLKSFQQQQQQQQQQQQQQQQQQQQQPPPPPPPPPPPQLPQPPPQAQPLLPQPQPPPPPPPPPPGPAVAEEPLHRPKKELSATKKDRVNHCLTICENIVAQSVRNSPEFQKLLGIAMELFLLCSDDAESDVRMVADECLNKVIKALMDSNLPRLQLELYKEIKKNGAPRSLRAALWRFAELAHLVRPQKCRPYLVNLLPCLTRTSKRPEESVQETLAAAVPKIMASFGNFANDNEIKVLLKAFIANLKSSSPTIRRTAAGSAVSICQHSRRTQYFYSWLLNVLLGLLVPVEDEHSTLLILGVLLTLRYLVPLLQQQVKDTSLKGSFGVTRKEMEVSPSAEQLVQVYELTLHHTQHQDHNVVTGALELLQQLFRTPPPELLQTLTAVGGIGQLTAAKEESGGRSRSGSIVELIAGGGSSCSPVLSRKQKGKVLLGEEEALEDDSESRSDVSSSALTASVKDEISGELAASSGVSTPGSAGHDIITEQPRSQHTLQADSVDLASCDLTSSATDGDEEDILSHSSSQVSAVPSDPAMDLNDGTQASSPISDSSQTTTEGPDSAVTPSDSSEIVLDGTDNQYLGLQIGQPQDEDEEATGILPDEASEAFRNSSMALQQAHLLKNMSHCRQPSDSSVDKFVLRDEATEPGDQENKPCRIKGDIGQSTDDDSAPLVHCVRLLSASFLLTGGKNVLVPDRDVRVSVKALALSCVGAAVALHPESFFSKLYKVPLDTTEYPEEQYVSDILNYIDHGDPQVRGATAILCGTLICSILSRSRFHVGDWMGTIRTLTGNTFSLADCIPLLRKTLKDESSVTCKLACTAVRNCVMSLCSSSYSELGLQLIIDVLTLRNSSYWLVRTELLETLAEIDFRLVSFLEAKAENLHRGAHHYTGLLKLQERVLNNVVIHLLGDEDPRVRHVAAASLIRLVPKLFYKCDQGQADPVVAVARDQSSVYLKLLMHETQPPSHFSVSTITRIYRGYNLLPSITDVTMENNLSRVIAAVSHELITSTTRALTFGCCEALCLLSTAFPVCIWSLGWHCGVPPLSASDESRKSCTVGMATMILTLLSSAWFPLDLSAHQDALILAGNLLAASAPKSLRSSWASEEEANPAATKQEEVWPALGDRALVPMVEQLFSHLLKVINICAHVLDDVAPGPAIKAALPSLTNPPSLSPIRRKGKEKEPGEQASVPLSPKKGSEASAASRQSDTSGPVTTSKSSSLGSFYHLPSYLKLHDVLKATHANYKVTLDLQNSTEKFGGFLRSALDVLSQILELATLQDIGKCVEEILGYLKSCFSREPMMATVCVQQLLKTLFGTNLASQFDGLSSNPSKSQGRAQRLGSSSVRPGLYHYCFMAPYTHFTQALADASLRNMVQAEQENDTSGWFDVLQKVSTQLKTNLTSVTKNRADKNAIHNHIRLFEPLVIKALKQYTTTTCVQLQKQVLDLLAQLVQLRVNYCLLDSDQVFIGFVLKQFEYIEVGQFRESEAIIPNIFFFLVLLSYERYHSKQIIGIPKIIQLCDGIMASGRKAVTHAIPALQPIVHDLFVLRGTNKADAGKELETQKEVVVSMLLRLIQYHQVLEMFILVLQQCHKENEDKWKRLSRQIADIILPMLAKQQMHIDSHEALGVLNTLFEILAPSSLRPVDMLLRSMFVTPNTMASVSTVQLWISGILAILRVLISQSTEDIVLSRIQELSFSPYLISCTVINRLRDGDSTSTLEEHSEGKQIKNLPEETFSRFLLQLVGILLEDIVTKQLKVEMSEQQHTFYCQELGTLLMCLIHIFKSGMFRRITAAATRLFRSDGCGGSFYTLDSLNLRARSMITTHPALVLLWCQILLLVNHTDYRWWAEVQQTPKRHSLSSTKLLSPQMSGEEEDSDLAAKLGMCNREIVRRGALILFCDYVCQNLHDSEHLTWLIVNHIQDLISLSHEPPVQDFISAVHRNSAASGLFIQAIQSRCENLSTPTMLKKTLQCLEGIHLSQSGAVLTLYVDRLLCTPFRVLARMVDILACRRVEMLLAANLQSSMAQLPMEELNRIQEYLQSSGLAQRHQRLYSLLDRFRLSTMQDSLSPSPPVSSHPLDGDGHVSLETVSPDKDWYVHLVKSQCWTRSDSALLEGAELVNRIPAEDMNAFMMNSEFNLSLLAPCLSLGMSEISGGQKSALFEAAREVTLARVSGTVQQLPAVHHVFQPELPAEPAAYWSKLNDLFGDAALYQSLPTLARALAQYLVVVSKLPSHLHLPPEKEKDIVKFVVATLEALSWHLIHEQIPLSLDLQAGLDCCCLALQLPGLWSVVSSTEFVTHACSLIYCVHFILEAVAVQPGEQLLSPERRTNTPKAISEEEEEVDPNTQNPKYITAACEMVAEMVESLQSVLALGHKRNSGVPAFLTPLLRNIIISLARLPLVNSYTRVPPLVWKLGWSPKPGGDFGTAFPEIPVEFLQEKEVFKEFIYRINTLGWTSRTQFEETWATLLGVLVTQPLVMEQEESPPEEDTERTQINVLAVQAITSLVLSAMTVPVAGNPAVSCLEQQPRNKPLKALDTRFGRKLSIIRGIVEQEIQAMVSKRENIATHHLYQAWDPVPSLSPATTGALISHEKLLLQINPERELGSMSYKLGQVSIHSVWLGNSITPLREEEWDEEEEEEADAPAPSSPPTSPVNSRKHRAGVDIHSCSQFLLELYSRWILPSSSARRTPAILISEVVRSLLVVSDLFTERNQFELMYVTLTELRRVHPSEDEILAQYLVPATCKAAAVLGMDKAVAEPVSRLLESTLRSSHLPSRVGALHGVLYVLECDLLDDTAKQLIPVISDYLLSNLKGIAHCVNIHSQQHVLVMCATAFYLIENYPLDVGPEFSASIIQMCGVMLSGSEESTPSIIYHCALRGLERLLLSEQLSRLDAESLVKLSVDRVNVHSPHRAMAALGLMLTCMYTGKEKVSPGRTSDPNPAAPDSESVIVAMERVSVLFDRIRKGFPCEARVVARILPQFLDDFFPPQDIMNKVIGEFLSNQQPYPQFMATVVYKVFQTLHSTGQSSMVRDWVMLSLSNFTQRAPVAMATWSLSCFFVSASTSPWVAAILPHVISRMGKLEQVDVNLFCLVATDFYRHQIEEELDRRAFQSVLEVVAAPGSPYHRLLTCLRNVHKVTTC

Assay [4] is described as follows: protection against mutant huntingtin cytotoxicity, PC12 cells, LDH release (AID 1610). Particulars: PC12 mutant huntingtin toxicity, final LDH at 4 uM, stronger effect = lower value. (In general: Release of lactate dehydrogenase indicates damage to the cell membrane.)

The results in this text go back to PubChem BioAssay.

The other results are listed elsewhere or left out. Further columns of the screen follow, without active or inactive calls. For some assays here: The list favours compounds with an active or inconclusive main result.

On to `CC(C)(C)CC(C)(C)c1ccc(O)c(Cc2ccc(Cl)cc2Cl)c1`, for which, in assay [1], the aggregation ratio turned out to be 0.984. This compound also returned a signal change (36 h minus 0 h) in assay [2] of 0.239. Besides, in assay [3], the SMN1 luciferase ratio turned out to be 0.9 and the SMN2 luciferase ratio was 0.87. Further, the normalised LDH release in assay [4] is 1.07.

Consider `CN(C)[C@@H]1C(=O)C(C(N)=O)=C(O)[C@@]2(O)C(=O)C3=C(O)c4c(O)ccc(Cl)c4[C@@H](O)[C@H]3C[C@@H]12`, for which the aggregation ratio in assay [1] came out at 0.979. For the same compound, the signal change (36 h minus 0 h) in assay [2] is 0.417. Further, in assay [3], the SMN1 luciferase ratio was 0.9 and the SMN2 luciferase ratio came to 0.93. This compound also had a normalised LDH release in assay [4] of 0.72.

Consider `O=C1C=CC(=C(c2ccc(O)cc2)c2ccc(O)cc2)C=C1`, for which the aggregation ratio in assay [1] turned out to be 1.06. In assay [2], this compound gave a signal change (36 h minus 0 h) of 0.0929. In assay [3], the SMN1 luciferase ratio came out at 0.94 and the SMN2 luciferase ratio worked out at 0.99.

Regarding `C=C1c2cccc(O)c2C(O)=C2C(=O)[C@]3(O)C(O)=C(C(N)=O)C(=O)[C@@H](N(C)C)[C@@H]3[C@@H](O)[C@H]12`, the aggregation ratio in assay [1] is 0.988. The compound further gave a signal change (36 h minus 0 h) in assay [2] of 0.159. In assay [3], the SMN1 luciferase ratio stood at 0.84 and the SMN2 luciferase ratio stood at 0.93. Besides, the normalised LDH release in assay [4] was 0.964.

On to `Oc1ccc(Cl)cc1Cc1cc(Cl)ccc1O`, for which the aggregation ratio in assay [1] was 0.892. In assay [2], the signal change (36 h minus 0 h) was determined as 0.164. In assay [3], the SMN1 luciferase ratio came to 0.92 and the SMN2 luciferase ratio stood at 0.89. In assay [4], the normalised LDH release is 0.891.

With `C=C1CC[C@H](O)C/C1=C/C=C1\CCC[C@]2(C)C([C@H](C)/C=C/[C@H](C)C(C)C)CC[C@@H]12` (stereo not given in full), the aggregation ratio in assay [1] came out at 0.704. Further, in assay [2], the signal change (36 h minus 0 h) amounted to 0.101. In assay [3], the SMN1 luciferase ratio came to 0.86 and the SMN2 luciferase ratio was 0.89. This compound also yielded a normalised LDH release in assay [4] of 0.85.

`NC(=O)c1cc[n+](CC2=C(C(=O)O)N3C(=O)C(NC(=O)C(c4ccccc4)S(=O)(=O)[O-])C3SC2)cc1` (stereo not given): the aggregation ratio in assay [1] amounted to 1.01. In assay [2], this compound showed a signal change (36 h minus 0 h) of 0.2. Moreover, in assay [3], the SMN1 luciferase ratio was 0.96 and the SMN2 luciferase ratio was 0.85. Further, the normalised LDH release in assay [4] was 1.1.

As to `CC1OC1P(=O)(O)O` (stereo not given), the aggregation ratio in assay [1] amounted to 1.06. Besides, the signal change (36 h minus 0 h) in assay [2] was found to be 0.0864. Also, in assay [3], the SMN1 luciferase ratio turned out to be 1.01 and the SMN2 luciferase ratio was 0.95. The normalised LDH release in assay [4] came out at 1.03.

With `O=c1c(O)c(-c2ccc(O)c(O)c2)oc2cc(O)cc(O)c12`, in assay [1], the aggregation ratio is 0.688. In assay [2], this compound gave a signal change (36 h minus 0 h) of 0.138. Moreover, in assay [3], the SMN1 luciferase ratio was 0.98 and the SMN2 luciferase ratio is 0.86. In assay [4], this compound had a normalised LDH release of 1.02.

In the case of `C[C@](N)(Cc1ccc(O)c(O)c1)C(=O)O`, the aggregation ratio in assay [1] came to 1.07. This compound also returned a signal change (36 h minus 0 h) in assay [2] of 0.0599. In addition, in assay [3], the SMN1 luciferase ratio stood at 0.87 and the SMN2 luciferase ratio turned out to be 0.96. This compound showed a normalised LDH release in assay [4] of 0.878.

In assay [2], `CC[C@H]1OC(=O)[C@H](C)[C@@H](O[C@H]2C[C@@](C)(OC)[C@@H](O)[C@H](C)O2)[C@H](C)[C@@H](O[C@@H]2O[C@H](C)C[C@H](N(C)C)[C@H]2O)[C@](C)(O)C[C@@H](C)CN(C)[C@H](C)[C@@H](O)[C@]1(C)O` registered a signal change (36 h minus 0 h) of 0.131. Also, in assay [3], the SMN1 luciferase ratio stood at 0.87 and the SMN2 luciferase ratio was found to be 0.88.

For `CN1CCc2c(c3ccccc3n2Cc2ccccc2)C1`, the signal change (36 h minus 0 h) in assay [2] was determined as 0.0872. In assay [3], the SMN1 luciferase ratio is 0.85 and the SMN2 luciferase ratio is 1.

In turn, `CC(=O)c1c(O)c(C)c(O)c2c1OC1=CC(=O)C(C(C)=O)C(=O)C12C` (stereo not given) yielded a signal change (36 h minus 0 h) in assay [2] of 0.289. Also, in assay [3], the SMN1 luciferase ratio was 0.81 and the SMN2 luciferase ratio was 0.76.

As for `CCN(CC)CCNc1ccc(CO)c2sc3ccccc3c(=O)c12`, the signal change (36 h minus 0 h) in assay [2] came to 0.0956. Further, in assay [3], the SMN1 luciferase ratio was found to be 0.59 and the SMN2 luciferase ratio was found to be 0.64.

Take `CC(C)=CCC1=C(O)c2ccccc2C(=O)C1=O`: the signal change (36 h minus 0 h) in assay [2] is 0.0411. In assay [3], the SMN1 luciferase ratio worked out at 0.77 and the SMN2 luciferase ratio worked out at 0.74.

`C=C1C(=O)OC2C1CCC1(C)CCC=C(C)C21` (stereo not given) returned a signal change (36 h minus 0 h) in assay [2] of 0.171. In addition, in assay [3], the SMN1 luciferase ratio was 0.96 and the SMN2 luciferase ratio was 0.96.

Compound `Oc1c(Cl)cc(Cl)cc1Sc1cc(Cl)cc(Cl)c1O` showed a signal change (36 h minus 0 h) in assay [2] of 0.0333. Besides, in assay [3], the SMN1 luciferase ratio worked out at 0.97 and the SMN2 luciferase ratio came to 0.84.

With `O=c1cc(-c2ccc(O)cc2)oc2cc(O)cc(O)c12`, the signal change (36 h minus 0 h) in assay [2] worked out at 0.0872. In assay [3], the SMN1 luciferase ratio was 1.5 and the SMN2 luciferase ratio came to 1.45.

Consider `CC(C)CC1C(=O)N2CCC[C@H]2C2(O)O[C@](NC(=O)C3C=C4c5cccc6[nH]c(Br)c(c56)C[C@H]4N(C)C3)(C(C)C)C(=O)N12` (stereo not given in full), for which the signal change (36 h minus 0 h) in assay [2] came to 0.0967. In assay [3], the SMN1 luciferase ratio is 0.95 and the SMN2 luciferase ratio came out at 0.98.

Consider `CC[C@@]1(O)C[C@H](OC2CC(N(C)C)C(OC3CC(O)C(OC4CCC(=O)C(C)O4)C(C)O3)C(C)O2)c2c(cc3c(c2O)C(=O)c2c(O)cccc2C3=O)[C@H]1C(=O)OC` (stereo not given in full), for which, in assay [2], the signal change (36 h minus 0 h) is 0.034.

Compound `COc1cc2ccc(=O)oc2cc1O` gave a signal change (36 h minus 0 h) in assay [2] of 0.0577. In assay [3], the SMN1 luciferase ratio came out at 0.9 and the SMN2 luciferase ratio turned out to be 0.97.

Regarding `CNC(=O)Oc1ccc2c(c1)[C@]1(C)CCN(C)[C@@H]1N2C`, the signal change (36 h minus 0 h) in assay [2] amounted to 0.0318. In assay [3], the SMN1 luciferase ratio came to 0.84 and the SMN2 luciferase ratio came out at 0.88.

Consider `Cc1ccc(C(=O)C(C)CN2CCCCC2)cc1` (stereo not given), for which the signal change (36 h minus 0 h) in assay [2] worked out at 0.138. Further, in assay [3], the SMN1 luciferase ratio was determined as 0.96 and the SMN2 luciferase ratio was 0.92.

In turn, `C[N+](C)(C)CCOC(N)=O` displayed a signal change (36 h minus 0 h) in assay [2] of 0.0988. Also, in assay [3], the SMN1 luciferase ratio is 1 and the SMN2 luciferase ratio was found to be 0.93.

As to `NCCCCNCCCN`, the signal change (36 h minus 0 h) in assay [2] was determined as 0.293. For the same compound, in assay [3], the SMN1 luciferase ratio stood at 0.78 and the SMN2 luciferase ratio was found to be 0.9.

As to `Cc1cc(C2CCCCC2)n(O)c(=O)c1`, in assay [2], the signal change (36 h minus 0 h) is 0.0068. Moreover, in assay [3], the SMN1 luciferase ratio was 0.24 and the SMN2 luciferase ratio was 0.28.

Consider `NC(=O)N/N=C/c1ccc([N+](=O)[O-])o1`, for which the signal change (36 h minus 0 h) in assay [2] worked out at 0.00815. Moreover, in assay [3], the SMN1 luciferase ratio was 0.94 and the SMN2 luciferase ratio was determined as 0.99.

Turning to `O=NN(CCCl)C(=O)NCCCl`, in assay [2], the signal change (36 h minus 0 h) stood at 0.178. For the same compound, in assay [3], the SMN1 luciferase ratio is 0.9 and the SMN2 luciferase ratio was determined as 0.87.

In assay [2], `CCOc1ccc2c(c1)C(C)=CC(C)(C)N2` gave a signal change (36 h minus 0 h) of 0.13. For the same compound, in assay [3], the SMN1 luciferase ratio was determined as 0.94 and the SMN2 luciferase ratio was found to be 0.89.

The compound `COc1ccc(CCN(C)CCCC(C#N)(c2ccc(OC)c(OC)c2)C(C)C)cc1OC` (stereo not given) displayed a signal change (36 h minus 0 h) in assay [2] of 0.0419. For the same compound, in assay [3], the SMN1 luciferase ratio was 0.91 and the SMN2 luciferase ratio turned out to be 0.82.

Compound `CC(NCCC(c1ccccc1)c1ccccc1)c1ccccc1` (stereo not given) showed a signal change (36 h minus 0 h) in assay [2] of 0.195. In assay [3], the SMN1 luciferase ratio was determined as 0.83 and the SMN2 luciferase ratio stood at 0.74.

`CO[C@@]12[C@@H]3NC3CN1C1=C(C(=O)C(N)=C(C)C1=O)[C@@H]2COC(N)=O` (stereo not given in full) came in with a signal change (36 h minus 0 h) in assay [2] of 0.484. Moreover, in assay [3], the SMN1 luciferase ratio worked out at 0.24 and the SMN2 luciferase ratio is 0.33.

Regarding `Nc1c2c(nc3ccccc13)CCCC2`, the signal change (36 h minus 0 h) in assay [2] is 0.144. For the same compound, in assay [3], the SMN1 luciferase ratio was 0.95 and the SMN2 luciferase ratio was determined as 0.98.

The compound `CC(=O)Nc1ccc(S(=O)(=O)Nc2ccc([N+](=O)[O-])cc2)cc1` gave a signal change (36 h minus 0 h) in assay [2] of 0.118. Besides, in assay [3], the SMN1 luciferase ratio worked out at 0.89 and the SMN2 luciferase ratio worked out at 0.78.

As for `CO/N=C(/C(=O)N[C@@H]1C(=O)N2C(C(=O)O)=C(COC(C)=O)CS[C@H]12)c1csc(N)n1`, the signal change (36 h minus 0 h) in assay [2] was 0.0992. Besides, in assay [3], the SMN1 luciferase ratio amounted to 0.92 and the SMN2 luciferase ratio was found to be 0.88.

In the case of `CN(C)c1ccc(C(=C2C=CC(=[N+](C)C)C=C2)c2ccc(N(C)C)cc2)cc1`, the signal change (36 h minus 0 h) in assay [2] was -0.114. In assay [3], the SMN1 luciferase ratio stood at 0.43 and the SMN2 luciferase ratio stood at 0.42.

`Nc1c(Br)cc(Br)cc1CNC1CCC(O)CC1` (stereo not given) displayed a signal change (36 h minus 0 h) in assay [2] of 0.0864. In assay [3], the SMN1 luciferase ratio is 0.82 and the SMN2 luciferase ratio was found to be 0.87.

With `COc1ccc(C[C@H](N)C(=O)N[C@@H]2[C@@H](CO)OC(n3cnc4c(N(C)C)ncnc43)[C@@H]2O)cc1` (stereo not given in full), the signal change (36 h minus 0 h) in assay [2] stood at 0.21. In addition, in assay [3], the SMN1 luciferase ratio stood at 0.09 and the SMN2 luciferase ratio stood at 0.13.

For the compound `CCCCCCCCCCCCCCCCCC(=O)OC(CC(=O)O)C[N+](C)(C)C` (stereo not given), the signal change (36 h minus 0 h) in assay [2] is 0.377. Besides, in assay [3], the SMN1 luciferase ratio worked out at 0.82 and the SMN2 luciferase ratio stood at 0.87.

The compound `CCCCC[C@H](CC(=O)NO)C(=O)N[C@H](C(=O)N1CCC[C@H]1CO)C(C)C` displayed a signal change (36 h minus 0 h) in assay [2] of 0.493. Further, in assay [3], the SMN1 luciferase ratio amounted to 1.08 and the SMN2 luciferase ratio is 0.94.

In assay [2], `CC(C)(C)CC(C)(C)c1ccc(OCCOCC[N+](C)(C)Cc2ccccc2)cc1` returned a signal change (36 h minus 0 h) of 0.0293. Further, in assay [3], the SMN1 luciferase ratio was 0.33 and the SMN2 luciferase ratio amounted to 0.41.
